Data as given in PubChem BioAssay AID1259424 (University of Nebraska Medical Center, 2018).

- Test: 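Find knockdowns that reproduce the expression shifts seen after KSR1 loss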 (primary screen)
- Cell system: human HCT116 colon cancer cells
- Reagent: siRNA pool against human genes, 50 nM
- Measurement: 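Log2 levels of six mRNAs (branched-DNA multiplex), adjusted by two reference genes and the non-targeting median, then scored against the average KSR1 knockdown pattern as Pearson r and euclidean distance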
- Reading the numbers: mean correlation with KSR1 profile and KSR1 correlation: higher = expression change more like KSR1 knockdown; mean distance from KSR1 profile: higher = expression change less like KSR1 knockdown
Shown is an unselected part of about 14,000 deposited reagents. 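Higher correlation or smaller distance means closer resemblance to KSR1 loss; control wells, including KSR1 knockdowns, recur on many plates.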 Some reagents were tested in more than one well and are listed for each. No sequences are given here. Not stated in the record: the time to read-out.

gene knocked down	mean correlation with KSR1 profile	mean distance from KSR1 profile	KSR1 correlation, replicate 1	KSR1 correlation, replicate 2	KSR1 correlation, replicate 3
MAS1L	0.849	2.07	0.781	0.779	0.915
AZIN1	-0.0305	1.3	-0.0322	0.186	-0.484
CPD	-0.0536	3.56	-0.0596	-0.199	0.0439
GRK1	0.718	1.22	0.728	0.779	0.698
GRK1	0.431	2.08	0.39	0.153	0.589
ZBTB11	0.208	1.4	0.000324	-0.0237	0.0338
PDPR	-0.264	4.38	-0.511	0.129	-0.234
CALB2	0.131	4.09	0.161	0.21	0.0454
PLCXD1	-0.343	1.63	-0.132	-0.448	-0.272
KPNA5	-0.27	1.79	-0.193	-0.561	-0.376
XPR1	0.332	2.08	0.525	0.649	0.345
CPLX1	-0.129	2.34	0.0255	-0.17	-0.187
NOS1AP	-0.233	2.8	-0.186	-0.0454	-0.491
PSCA	0.399	3.45	0.358	0.313	0.411
DCUN1D1	-0.657	1.78	-0.371	-0.654	-0.52
MRPL42	-0.612	2.05	-0.6	-0.482	-0.865
FBXW5	-0.409	5.17	-0.259	-0.345	-0.421
CTSS	0.342	2.8	0.1	0.317	0.581
TMCC1	-0.506	2.01	-0.508	-0.733	-0.676
RTP4	-0.165	1.77	-0.2	-0.408	0.00443
GNA14	0.546	2.81	0.682	0.534	0.259
JADE1	0.342	1.89	0.232	0.486	0.397
RBM39	-0.636	2.41	-0.451	-0.51	-0.649
C1orf56	0.553	1.45	0.561	0.381	0.616
SLC67A1-AS	-0.111	2.62	0.195	-0.158	-0.223
TRAPPC3	0.0618	1.13	-0.471	-0.365	-0.178
SLC35G2	0.476	1.48	0.339	0.512	0.401
MMP10	0.299	2.06	0.302	0.273	0.183
PF4	-0.625	3.28	-0.433	-0.637	-0.853
TRIM11	0.00899	2.55	-0.208	0.128	-0.0787
PMS2P5	0.374	1.29	0.574	0.257	0.407
ELMO2	-0.554	2.69	-0.627	-0.441	-0.525
HMX1	0.054	2.02	0.306	-0.298	-0.0102
MEGF6	0.654	4.02	0.654	0.676	0.455
GON7	-0.133	1.14	-0.38	0.0843	0.014
HP	0.0182	2.81	-0.0746	-0.0872	-0.0549
VNN1	-0.702	2.22	-0.528	-0.648	-0.875
ADGRG2	0.696	2.85	0.706	0.712	0.613
TAF7	0.329	2.25	0.389	0.28	0.373
CFL2	-0.442	2.75	-0.621	-0.343	-0.387
NR2E3	-0.0242	2.61	0.112	0.000669	-0.272
TMX4	0.28	0.828	0.257	0.123	0.411
NCAM2	0.32	1.25	0.194	0.0322	0.306
TECTA	-0.238	2.05	-0.222	-0.635	0.0384
H4C8	-0.207	2.5	-0.3	-0.136	-0.209
TTC3	-0.485	2.24	-0.414	-0.511	-0.389
HAGHL	-0.149	1.48	-0.331	-0.31	-0.177
LYL1	-0.412	3.85	-0.289	-0.537	-0.474
PDGFD	0.247	1.94	-0.0388	0.204	0.268
FANCI	0.0432	3.21	-0.0405	-0.0359	-0.0338

7 neighbouring entries already listed, for reference:
gene knocked down	mean correlation with KSR1 profile	mean distance from KSR1 profile	KSR1 correlation, replicate 1	KSR1 correlation, replicate 2	KSR1 correlation, replicate 3
MAS1L	0.849	2.07	0.781	0.779	0.915
AZIN1	-0.0305	1.3	-0.0322	0.186	-0.484
CPD	-0.0536	3.56	-0.0596	-0.199	0.0439
GRK1	0.718	1.22	0.728	0.779	0.698
GRK1	0.431	2.08	0.39	0.153	0.589
ZBTB11	0.208	1.4	0.000324	-0.0237	0.0338
PDPR	-0.264	4.38	-0.511	0.129	-0.234
